The results in this text go back to patent publication US20250177547A1, “PSMA-STEAP1 DUAL VARIABLE DOMAIN IMMUNOGLOBLIN (DVD-Ig) MOLECULES AND DRUG CONJUGATES” (AbbVie Inc., priority 2023, published 2025).

The chains behind the UniProt entries cited, without tags or fusion partners. Residues count along the entry.
UniProt Q04609, residues 44-750: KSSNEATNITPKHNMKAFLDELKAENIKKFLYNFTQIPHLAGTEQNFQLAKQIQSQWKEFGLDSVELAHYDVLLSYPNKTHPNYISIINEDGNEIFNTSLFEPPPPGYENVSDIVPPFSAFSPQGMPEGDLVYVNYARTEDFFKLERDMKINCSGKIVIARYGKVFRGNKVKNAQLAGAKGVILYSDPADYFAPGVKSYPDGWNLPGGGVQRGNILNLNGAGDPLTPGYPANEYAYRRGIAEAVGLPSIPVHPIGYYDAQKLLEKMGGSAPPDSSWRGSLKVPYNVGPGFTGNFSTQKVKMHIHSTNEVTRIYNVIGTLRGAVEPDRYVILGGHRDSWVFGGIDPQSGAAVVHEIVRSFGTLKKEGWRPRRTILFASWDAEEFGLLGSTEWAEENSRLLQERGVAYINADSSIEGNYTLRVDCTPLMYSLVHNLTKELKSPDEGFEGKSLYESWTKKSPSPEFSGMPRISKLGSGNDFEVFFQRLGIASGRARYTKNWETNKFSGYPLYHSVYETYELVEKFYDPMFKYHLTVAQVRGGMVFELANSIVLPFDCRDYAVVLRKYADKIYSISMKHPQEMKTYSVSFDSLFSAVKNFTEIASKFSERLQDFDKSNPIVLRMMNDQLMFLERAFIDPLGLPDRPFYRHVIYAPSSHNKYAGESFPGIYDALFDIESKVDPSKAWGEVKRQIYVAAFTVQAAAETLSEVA

For this assay, the target named is PSMA as used in the Biacore assay (UniProt Q04609). Description: Biacore, kinetics of binding to PSMA.

No constants are given. Whether binding was seen depends on the method and setting. Some results given as binding are weak or reduced against the parent protein; the word gives no strength.

B1: DVD (clone 15) with the NG-to-NT mutation in HCDR2 of the PSMA binding domain (bispecific antibody, not shown: a dimerising Fc or GST; large carriers)
heavy: EVQLVESGGGVVQPGRSLRLSCVASGFPFNNYWMTWIRQAPGKGLEWIASITITGGTTYYPGSVKGRFTISRDNSKSTLYLQMNSLRAEDTAVYYCTRERYSTEYYPYYWYFDFWGQGTMVTVSSGGGGSGGGGSEVQLVQSGAEVKKPGSSVKVSCKASGYTFTDYYMNWVKQAPGKGLEWIGLINPSNTGTNYNQKFRDKATLTVDKSTSTAYMELSSLRSEDTAVYYCARRAQATSGDYWGQGTTVTVSS
light: DIQMTQSPSSLSASVGDRVTITCRTSQDIGNYLRWFQQKPGKSPKLMIYDAINLAAGVPSRFSGSGSGTDYTLTISSLQPEDVATYYCLQHNEYPYTFGQGTKLEIKRGGSGGGGSGDIQMTQSPSSLSASVGDRVTITCHASQNINVWLSWYQQKPGKAPKLLIYKASNLHTGVPSRFSGSGSGTDFTFTISSLQPEDIATYYCQQGQTYPLTFGGGTKVEIK
On to B1, for which the binding entry is “binds”.
